Some of the results follow. Residues, ends and D or L forms follow the SMILES beside them. *: point of attachment. Cbz = O=C(OCc1ccccc1)*
Experiments:
Assay in all cases: log2 fold change, soluble protein after heating vs DMSO (PISA); higher = thermal stabilisation; K562 cells, 10 uM, 30 min; active = over 0.2 and 3.5 SD of the protein, either way, in both replicates (recomputed)
IRAK-1-4 Inhibitor I = compound: C1COCCN1CCN2C3=CC=CC=C3N=C2NC(=O)C4=CC(=CC=C4)[N+](=O)[O-] [IRAK-1-4 Inhibitor I]
Summary of the method: (§1)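 K562 cells at 2×10^6 cells/mL were treated for 30 min with 10 μM compound, and aliquots were heated for 3 min over 48°C-58°C before pooling. Extraction used PBS with 0.5% NP-40 at 4°C, and soluble protein was the supernatant after 21,000xg for 90 min, measured by TMTpro 16plex LC-MS/MS with channel sums equalised. Thermal stability values, relative to control samples and from duplicates, are log2 fold changes.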

Chains of the proteins cited; added tags and fusions are not shown. Lines headed by an entry give the natural chain unless they say otherwise; changes in a name come on top.
UniProt Q8IYB5: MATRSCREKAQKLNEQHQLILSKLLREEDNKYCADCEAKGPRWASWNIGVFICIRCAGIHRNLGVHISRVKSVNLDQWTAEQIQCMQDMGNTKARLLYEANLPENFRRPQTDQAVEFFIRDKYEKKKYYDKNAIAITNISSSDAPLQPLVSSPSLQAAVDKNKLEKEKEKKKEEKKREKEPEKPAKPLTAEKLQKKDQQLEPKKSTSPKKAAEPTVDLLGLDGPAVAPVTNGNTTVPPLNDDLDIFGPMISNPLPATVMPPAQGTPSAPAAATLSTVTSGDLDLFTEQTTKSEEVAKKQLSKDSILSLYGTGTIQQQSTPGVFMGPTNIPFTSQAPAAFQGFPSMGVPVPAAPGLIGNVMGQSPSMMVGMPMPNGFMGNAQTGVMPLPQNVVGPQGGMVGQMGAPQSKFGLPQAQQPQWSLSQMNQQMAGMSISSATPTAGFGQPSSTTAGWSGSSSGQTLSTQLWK
UniProt Q96EX1: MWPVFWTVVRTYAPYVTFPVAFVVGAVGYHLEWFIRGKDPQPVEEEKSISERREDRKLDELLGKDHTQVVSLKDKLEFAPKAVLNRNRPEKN
UniProt P09234, whole entry, looked up: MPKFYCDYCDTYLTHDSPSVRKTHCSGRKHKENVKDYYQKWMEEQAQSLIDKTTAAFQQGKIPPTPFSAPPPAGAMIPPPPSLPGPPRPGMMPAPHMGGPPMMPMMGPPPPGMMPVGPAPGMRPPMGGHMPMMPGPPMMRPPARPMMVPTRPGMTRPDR
UniProt Q14BN4: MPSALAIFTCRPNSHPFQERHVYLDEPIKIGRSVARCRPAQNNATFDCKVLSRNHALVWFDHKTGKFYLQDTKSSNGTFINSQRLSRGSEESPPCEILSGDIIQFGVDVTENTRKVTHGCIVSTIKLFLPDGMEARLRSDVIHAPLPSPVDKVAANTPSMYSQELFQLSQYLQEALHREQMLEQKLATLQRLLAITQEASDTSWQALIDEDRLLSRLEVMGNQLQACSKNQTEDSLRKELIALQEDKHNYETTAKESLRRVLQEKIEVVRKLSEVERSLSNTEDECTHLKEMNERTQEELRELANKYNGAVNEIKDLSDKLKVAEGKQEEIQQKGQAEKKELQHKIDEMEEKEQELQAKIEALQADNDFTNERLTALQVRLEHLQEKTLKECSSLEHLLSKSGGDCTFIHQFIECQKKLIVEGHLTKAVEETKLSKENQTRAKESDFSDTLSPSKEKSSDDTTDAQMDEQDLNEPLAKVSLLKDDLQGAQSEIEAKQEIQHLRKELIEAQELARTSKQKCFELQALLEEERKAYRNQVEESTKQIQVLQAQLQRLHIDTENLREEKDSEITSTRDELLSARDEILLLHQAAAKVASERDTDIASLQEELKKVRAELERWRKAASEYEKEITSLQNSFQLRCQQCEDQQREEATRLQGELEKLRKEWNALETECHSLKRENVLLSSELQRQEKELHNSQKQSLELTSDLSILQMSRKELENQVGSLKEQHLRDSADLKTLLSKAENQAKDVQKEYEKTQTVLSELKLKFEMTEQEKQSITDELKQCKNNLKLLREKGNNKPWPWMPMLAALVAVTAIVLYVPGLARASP
UniProt Q92922, whole entry, looked up: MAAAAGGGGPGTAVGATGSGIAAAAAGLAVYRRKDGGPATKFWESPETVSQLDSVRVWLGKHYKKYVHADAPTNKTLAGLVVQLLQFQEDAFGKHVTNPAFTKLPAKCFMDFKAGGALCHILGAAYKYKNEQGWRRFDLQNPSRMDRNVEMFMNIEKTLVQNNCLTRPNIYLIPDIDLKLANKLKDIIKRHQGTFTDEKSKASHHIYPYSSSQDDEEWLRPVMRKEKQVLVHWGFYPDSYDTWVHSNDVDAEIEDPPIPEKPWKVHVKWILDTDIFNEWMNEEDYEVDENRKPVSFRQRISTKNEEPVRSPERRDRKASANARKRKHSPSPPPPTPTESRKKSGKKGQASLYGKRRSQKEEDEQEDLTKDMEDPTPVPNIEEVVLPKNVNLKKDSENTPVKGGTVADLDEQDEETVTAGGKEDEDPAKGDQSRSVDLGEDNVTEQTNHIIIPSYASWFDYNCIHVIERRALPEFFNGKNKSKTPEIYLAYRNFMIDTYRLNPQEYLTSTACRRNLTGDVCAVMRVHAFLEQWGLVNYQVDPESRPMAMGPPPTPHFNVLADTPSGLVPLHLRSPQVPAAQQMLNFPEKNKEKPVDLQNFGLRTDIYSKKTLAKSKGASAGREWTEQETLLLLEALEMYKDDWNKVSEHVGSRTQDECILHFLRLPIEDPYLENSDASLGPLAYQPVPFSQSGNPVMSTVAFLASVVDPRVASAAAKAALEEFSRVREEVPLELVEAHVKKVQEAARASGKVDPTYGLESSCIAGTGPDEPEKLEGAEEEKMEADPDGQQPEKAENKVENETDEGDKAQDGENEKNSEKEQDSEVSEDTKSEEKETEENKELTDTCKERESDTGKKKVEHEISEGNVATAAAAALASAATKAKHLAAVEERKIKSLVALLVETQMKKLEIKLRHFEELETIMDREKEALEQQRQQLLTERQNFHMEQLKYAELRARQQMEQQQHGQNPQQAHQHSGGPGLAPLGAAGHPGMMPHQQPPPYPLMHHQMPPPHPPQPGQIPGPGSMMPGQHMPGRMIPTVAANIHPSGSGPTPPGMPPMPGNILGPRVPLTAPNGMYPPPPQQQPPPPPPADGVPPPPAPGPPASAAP
UniProt P08621, whole entry, looked up: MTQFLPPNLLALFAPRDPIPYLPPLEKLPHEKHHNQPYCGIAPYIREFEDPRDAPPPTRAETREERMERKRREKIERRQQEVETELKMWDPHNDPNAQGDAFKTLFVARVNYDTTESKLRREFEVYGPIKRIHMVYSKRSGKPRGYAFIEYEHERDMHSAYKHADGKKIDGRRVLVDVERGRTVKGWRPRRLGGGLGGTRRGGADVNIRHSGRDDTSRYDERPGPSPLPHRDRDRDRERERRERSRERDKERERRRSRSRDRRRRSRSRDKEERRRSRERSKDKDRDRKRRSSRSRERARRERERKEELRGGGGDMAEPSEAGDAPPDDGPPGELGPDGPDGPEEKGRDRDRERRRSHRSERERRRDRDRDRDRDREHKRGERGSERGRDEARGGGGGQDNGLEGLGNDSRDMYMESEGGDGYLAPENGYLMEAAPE
UniProt Q96H20: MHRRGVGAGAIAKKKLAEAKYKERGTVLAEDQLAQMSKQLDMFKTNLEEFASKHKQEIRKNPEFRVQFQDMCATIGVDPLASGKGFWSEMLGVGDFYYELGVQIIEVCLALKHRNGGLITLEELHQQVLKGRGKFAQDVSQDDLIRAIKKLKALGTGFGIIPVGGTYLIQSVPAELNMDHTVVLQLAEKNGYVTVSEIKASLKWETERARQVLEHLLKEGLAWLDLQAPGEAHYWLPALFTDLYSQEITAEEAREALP
UniProt P51532, whole entry, looked up: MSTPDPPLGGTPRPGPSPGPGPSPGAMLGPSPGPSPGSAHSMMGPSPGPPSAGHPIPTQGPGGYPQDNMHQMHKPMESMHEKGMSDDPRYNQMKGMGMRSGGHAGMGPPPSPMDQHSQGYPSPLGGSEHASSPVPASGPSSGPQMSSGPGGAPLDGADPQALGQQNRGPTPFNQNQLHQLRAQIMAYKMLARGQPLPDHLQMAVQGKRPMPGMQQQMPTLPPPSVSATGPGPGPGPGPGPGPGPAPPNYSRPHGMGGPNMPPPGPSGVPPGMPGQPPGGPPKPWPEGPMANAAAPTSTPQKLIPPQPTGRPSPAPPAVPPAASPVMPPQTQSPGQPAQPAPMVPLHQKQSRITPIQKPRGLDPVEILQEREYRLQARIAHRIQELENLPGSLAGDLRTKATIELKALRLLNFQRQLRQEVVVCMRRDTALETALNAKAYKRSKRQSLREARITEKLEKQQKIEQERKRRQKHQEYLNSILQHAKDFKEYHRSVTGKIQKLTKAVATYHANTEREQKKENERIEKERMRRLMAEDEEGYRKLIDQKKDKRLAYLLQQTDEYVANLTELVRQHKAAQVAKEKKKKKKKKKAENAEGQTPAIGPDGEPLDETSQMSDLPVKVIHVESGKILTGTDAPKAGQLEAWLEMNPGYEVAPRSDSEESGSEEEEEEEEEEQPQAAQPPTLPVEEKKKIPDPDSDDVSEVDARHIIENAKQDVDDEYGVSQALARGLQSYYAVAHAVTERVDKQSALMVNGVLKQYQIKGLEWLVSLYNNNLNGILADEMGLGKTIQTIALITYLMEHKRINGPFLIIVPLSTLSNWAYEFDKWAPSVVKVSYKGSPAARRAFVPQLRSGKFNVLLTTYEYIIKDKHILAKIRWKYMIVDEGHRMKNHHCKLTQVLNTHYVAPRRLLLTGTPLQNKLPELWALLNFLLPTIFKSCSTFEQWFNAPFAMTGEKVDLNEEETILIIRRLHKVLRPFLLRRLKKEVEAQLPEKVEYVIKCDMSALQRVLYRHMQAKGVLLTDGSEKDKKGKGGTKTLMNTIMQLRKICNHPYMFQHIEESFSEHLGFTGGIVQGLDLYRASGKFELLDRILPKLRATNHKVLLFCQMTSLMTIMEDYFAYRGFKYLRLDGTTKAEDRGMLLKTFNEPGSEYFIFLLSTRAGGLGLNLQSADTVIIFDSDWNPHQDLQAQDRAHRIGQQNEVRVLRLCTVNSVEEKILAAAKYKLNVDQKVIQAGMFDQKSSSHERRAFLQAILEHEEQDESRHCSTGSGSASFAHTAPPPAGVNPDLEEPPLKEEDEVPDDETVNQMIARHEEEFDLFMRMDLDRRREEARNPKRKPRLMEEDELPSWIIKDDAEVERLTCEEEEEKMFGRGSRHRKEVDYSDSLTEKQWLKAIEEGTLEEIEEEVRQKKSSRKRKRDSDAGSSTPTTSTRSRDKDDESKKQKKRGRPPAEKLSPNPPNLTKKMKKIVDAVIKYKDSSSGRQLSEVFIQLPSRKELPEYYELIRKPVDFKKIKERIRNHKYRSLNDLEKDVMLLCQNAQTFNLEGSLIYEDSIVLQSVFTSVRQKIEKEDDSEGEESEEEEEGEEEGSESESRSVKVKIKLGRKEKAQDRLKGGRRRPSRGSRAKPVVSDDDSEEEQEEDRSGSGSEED
UniProt P62314, whole entry, looked up: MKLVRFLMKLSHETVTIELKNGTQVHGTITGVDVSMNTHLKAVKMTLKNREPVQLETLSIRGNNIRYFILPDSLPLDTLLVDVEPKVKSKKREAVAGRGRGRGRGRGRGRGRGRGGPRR
UniProt Q9Y5W7: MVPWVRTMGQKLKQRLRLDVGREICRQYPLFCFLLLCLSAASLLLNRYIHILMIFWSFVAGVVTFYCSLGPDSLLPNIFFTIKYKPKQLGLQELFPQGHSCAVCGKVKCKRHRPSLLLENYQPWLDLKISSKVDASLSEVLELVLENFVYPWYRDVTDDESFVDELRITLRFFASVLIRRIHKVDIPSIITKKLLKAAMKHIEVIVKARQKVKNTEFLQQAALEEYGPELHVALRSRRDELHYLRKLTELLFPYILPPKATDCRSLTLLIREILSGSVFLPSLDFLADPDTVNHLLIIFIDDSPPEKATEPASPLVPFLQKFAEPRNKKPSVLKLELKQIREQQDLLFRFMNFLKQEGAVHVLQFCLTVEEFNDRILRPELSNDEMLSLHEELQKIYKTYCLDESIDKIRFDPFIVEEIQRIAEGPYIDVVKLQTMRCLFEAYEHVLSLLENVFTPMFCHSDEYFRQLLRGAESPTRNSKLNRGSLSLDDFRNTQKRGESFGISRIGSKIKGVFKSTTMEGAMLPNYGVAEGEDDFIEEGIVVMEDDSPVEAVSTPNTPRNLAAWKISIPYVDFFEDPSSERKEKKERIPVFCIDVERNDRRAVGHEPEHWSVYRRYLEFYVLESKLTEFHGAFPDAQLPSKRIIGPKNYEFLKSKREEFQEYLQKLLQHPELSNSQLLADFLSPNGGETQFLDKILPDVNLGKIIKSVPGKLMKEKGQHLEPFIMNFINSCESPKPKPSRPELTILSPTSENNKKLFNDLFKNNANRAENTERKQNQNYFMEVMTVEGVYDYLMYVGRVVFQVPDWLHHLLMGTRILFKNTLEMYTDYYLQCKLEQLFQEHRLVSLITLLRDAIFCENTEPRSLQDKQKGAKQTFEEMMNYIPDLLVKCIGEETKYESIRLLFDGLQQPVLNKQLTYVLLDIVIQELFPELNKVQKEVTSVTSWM
UniProt Q9Y5X2: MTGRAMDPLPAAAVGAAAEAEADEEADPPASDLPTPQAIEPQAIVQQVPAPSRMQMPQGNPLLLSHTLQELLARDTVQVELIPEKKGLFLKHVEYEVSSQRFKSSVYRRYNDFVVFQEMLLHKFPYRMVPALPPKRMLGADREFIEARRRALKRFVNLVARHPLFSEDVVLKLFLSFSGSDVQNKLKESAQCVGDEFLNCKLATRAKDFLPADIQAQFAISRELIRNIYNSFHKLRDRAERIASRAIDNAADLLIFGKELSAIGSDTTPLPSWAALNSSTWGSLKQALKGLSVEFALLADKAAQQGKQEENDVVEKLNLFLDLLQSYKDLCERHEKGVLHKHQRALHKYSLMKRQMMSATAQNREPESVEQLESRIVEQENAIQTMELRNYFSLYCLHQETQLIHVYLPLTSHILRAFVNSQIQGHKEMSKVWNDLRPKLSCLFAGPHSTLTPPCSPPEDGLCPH

ibrutinib = compound: C=CC(=O)N1CCC[C@@H](n2nc(-c3ccc(Oc4ccccc4)cc3)c3c(N)ncnc32)C1 [ibrutinib]
Summary of the method: as §1

[1] = compound: CC(=O)c1cnc2ccc(-c3cc(Cl)c(O)c(Cl)c3)nc2c1N[C@H]1CC[C@H](CN(C)C)CC1
Summary of the method: as §1

ralimetinib = compound: CC(C)(C)Cn1c(N)nc2ccc(-c3[nH]c(C(C)(C)C)nc3-c3ccc(F)cc3)nc21 [ralimetinib]
Summary of the method: as §1

[2] = compound: CC(C)(O)CC(=O)NCCn1ccc2ncnc(Nc3ccc(Oc4cccc(C(F)(F)F)c4)c(Cl)c3)c21
Summary of the method: as §1

[3] = compound: CC(C)C1=C2N=C(C=C(N2N=C1)NCC3=CC=CC=C3)NCCCCCCN
Summary of the method: as §1

[4] = compound: CC(C)C[C@@H](C=O)NC(=O)[C@H](CC(C)C)NC(=O)[C@H](CC(C)C)NC(=O)OCc1ccccc1
Summary of the method: as §1

pinometostat = compound: CC(C)N(C[C@H]1O[C@@H](n2cnc3c(N)ncnc32)[C@H](O)[C@@H]1O)[C@H]1C[C@@H](CCc2nc3cc(C(C)(C)C)ccc3[nH]2)C1 [pinometostat]
Summary of the method: as §1

[5] = compound: CC1=C(C(CC(=O)N1)C2=CC=C(C=C2)C(F)(F)F)C(=O)NC3=C(C=C4C(=C3)C=NN4)F
Summary of the method: as §1

[6] = compound: CC1=C(C2=C(C=C1)C(=O)C3=CC=CC=C3N2CCCN)C
Summary of the method: as §1

Measured: log2 fold change

SMC1A (UniProt Q14683)
inactive: IRAK-1-4 Inhibitor I -0.008 | ibrutinib -0.031 | [1] -0.139 | ralimetinib 0.01 | [2] -0.036 | [3] -0.002 | [4] -0.015 | pinometostat -0.006 | [5] -0.014 | [6] -0.101

SMAP1 isoform 2 (UniProt Q8IYB5)
inactive: IRAK-1-4 Inhibitor I 0.005 | ibrutinib -0.031 | [1] 0.019 | ralimetinib 0.001 | [2] -0.028 | [3] 0.083 | [4] 0.014 | pinometostat -0.085 | [5] -0.014 | [6] 0.026

SMARCC2 (UniProt Q8TAQ2)
inactive: IRAK-1-4 Inhibitor I 0.064 | ibrutinib 0.024 | [1] -0.116 | ralimetinib 0.072 | [2] -0.092 | [3] -0.149 | [4] 0.028 | pinometostat -0.126 | [5] 0.05 | [6] 0.02

SNRPB isoform 3 (UniProt P14678)
inactive: IRAK-1-4 Inhibitor I 0.02 | ibrutinib -0.002 | [1] 0.095 | ralimetinib 0.119 | [2] 0.1 | [3] 0.222 | [4] -0.052 | pinometostat 0.002 | [5] -0.044 | [6] 0.05

SNRPA1 (UniProt P09661)
inactive: IRAK-1-4 Inhibitor I 0.051 | ibrutinib -0.024 | [1] 0.111 | ralimetinib 0.066 | [2] 0.101 | [3] 0.203 | [4] -0.103 | pinometostat -0.018 | [5] 0.007 | [6] 0.063

SOX7 isoform 2 (UniProt Q9BT81)
inactive: IRAK-1-4 Inhibitor I 0.003 | ibrutinib -0.02 | [1] 0.183 | ralimetinib 0.054 | [2] 0.085 | [3] -0.075 | [4] 0.194 | pinometostat 0.336 | [5] -0.018 | [6] -0.125

SMIM12 (UniProt Q96EX1)
inactive: IRAK-1-4 Inhibitor I 0.108 | ibrutinib 0.009 | [1] 0.124 | ralimetinib 0.07 | [2] 0.015 | [3] 0.013 | [4] 0.037 | pinometostat 0.035 | [5] -0.012 | [6] 0.093

SMC2 (UniProt O95347)
inactive: IRAK-1-4 Inhibitor I -0.052 | ibrutinib -0.054 | [1] 0.061 | ralimetinib 0.034 | [2] -0.075 | [3] -0.083 | [4] 0.057 | pinometostat 0.004 | [5] -0.01 | [6] -0.017

SNRPC (UniProt P09234)
inactive: IRAK-1-4 Inhibitor I 0.001 | ibrutinib 0.007 | [1] 0.003 | ralimetinib -0.076 | [2] 0.015 | [3] 0.162 | [4] 0.015 | pinometostat -0.064 | [5] -0.004 | [6] 0.12

SLMAP (UniProt Q14BN4)
inactive: IRAK-1-4 Inhibitor I -0.063 | ibrutinib -0.058 | [1] -0.031 | ralimetinib 0.032 | [2] -0.004 | [3] -0.058 | [4] 0.062 | pinometostat 0.045 | [5] 0.009 | [6] 0.035

SMARCC1 (UniProt Q92922)
inactive: IRAK-1-4 Inhibitor I -0.126 | ibrutinib 0.043 | [1] -0.025 | ralimetinib 0.062 | [2] -0.13 | [3] -0.105 | [4] 0.177 | pinometostat 0.086 | [5] 0.144 | [6] 0.057

SPAG5 (UniProt Q96R06)
inactive: IRAK-1-4 Inhibitor I -0.184 | ibrutinib -0.13 | [1] -0.1 | ralimetinib 0.158 | [2] -0.038 | [3] -0.335 | [4] 0.172 | pinometostat 0.414 | [5] -0.021 | [6] 0.128

SOD2 (UniProt P04179)
inactive: IRAK-1-4 Inhibitor I 0.041 | ibrutinib -0.01 | [1] 0.041 | ralimetinib -0.026 | [2] 0.191 | [3] 0.042 | [4] -0.054 | pinometostat -0.14 | [5] 0.024 | [6] -0.016

SNRNP70 (UniProt P08621)
inactive: IRAK-1-4 Inhibitor I -0.076 | ibrutinib 0.04 | [1] -0.025 | ralimetinib 0.043 | [2] 0.122 | [3] 0.308 | [4] 0.089 | pinometostat 0.177 | [5] -0.017 | [6] 0.348

SLC9A3R1 (UniProt O14745)
inactive: IRAK-1-4 Inhibitor I 0.071 | ibrutinib 0.024 | [1] 0.018 | ralimetinib -0.015 | [2] -0.012 | [3] 0.05 | [4] 0.014 | pinometostat -0.073 | [5] 0.022 | [6] -0.011

SNF8 (UniProt Q96H20)
inactive: IRAK-1-4 Inhibitor I 0.039 | ibrutinib 0.026 | [1] -0.032 | ralimetinib -0.021 | [2] -0.023 | [3] 0.022 | [4] -0.018 | pinometostat -0.029 | [5] 0.04 | [6] 0.02

SMN1 (UniProt Q16637)
inactive: IRAK-1-4 Inhibitor I -0.17 | ibrutinib 0.037 | [1] -0.121 | ralimetinib 0.15 | [2] -0.015 | [3] -0.298 | [4] 0.048 | pinometostat 0.267 | [5] -0.044 | [6] -0.282

SND1 (UniProt Q7KZF4)
inactive: IRAK-1-4 Inhibitor I -0.219 | ibrutinib -0.007 | [1] 0.175 | ralimetinib 0.373 | [2] 0.13 | [3] -0.147 | [4] 0.329 | pinometostat 0.672 | [5] 0.007 | [6] 0.065

SMS (UniProt P52788)
inactive: IRAK-1-4 Inhibitor I 0.024 | ibrutinib 0.034 | [1] 0.018 | ralimetinib -0.069 | [2] -0.016 | [3] 0.02 | [4] -0.079 | pinometostat -0.085 | [5] 0.044 | [6] 0.028

SNRPF (UniProt P62306)
inactive: IRAK-1-4 Inhibitor I 0.06 | ibrutinib 0.136 | [1] 0.056 | ralimetinib -0.011 | [2] -0.04 | [3] 0.197 | [4] 0.004 | pinometostat -0.012 | [5] 0.269 | [6] -0.077

SMARCA4 (UniProt P51532)
inactive: IRAK-1-4 Inhibitor I -0.155 | ibrutinib -0.136 | [1] -0.056 | ralimetinib 0.255 | [2] 0.027 | [3] -0.397 | [4] 0.16 | pinometostat 0.193

SMNDC1 (UniProt O75940)
inactive: IRAK-1-4 Inhibitor I 0.029 | ibrutinib 0.046 | [1] 0.011 | ralimetinib 0.06 | [2] 0.036 | [3] 0.159 | [4] 0.015 | pinometostat 0.001 | [5] -0.014 | [6] 0.122

SNAP23 (UniProt O00161)
inactive: IRAK-1-4 Inhibitor I 0.013 | ibrutinib -0.013 | [1] -0.003 | ralimetinib -0.029 | [2] 0.021 | [3] 0.034 | [4] 0.024 | pinometostat -0.061 | [5] 0.015 | [6] 0.007

SNU13, A0A3B3IUA2
inactive: IRAK-1-4 Inhibitor I -0.01 | ibrutinib -0.046 | [1] -0.051 | ralimetinib -0.146 | [2] -0.008 | [3] 0.002 | [4] -0.08 | pinometostat -0.007 | [5] 0.129 | [6] 0.088

SMC3 (UniProt Q9UQE7)
inactive: IRAK-1-4 Inhibitor I -0.022 | ibrutinib -0.035 | [1] -0.166 | ralimetinib -0.052 | [2] -0.043 | [3] 0.027 | [4] -0.009 | pinometostat -0.004 | [5] -0.009 | [6] -0.096

SNRPD1 (UniProt P62314)
inactive: IRAK-1-4 Inhibitor I 0.014 | ibrutinib 0 | [1] 0.017 | ralimetinib -0.103 | [2] 0.036 | [3] 0.18 | [4] 0.041 | pinometostat 0.002 | [5] -0.027 | [6] 0.055

SNX14 (UniProt Q9Y5W7)
inactive: IRAK-1-4 Inhibitor I 0.077 | ibrutinib -0.099 | [1] -0.156 | ralimetinib -0.049 | [2] -0.059 | [3] -0.042 | [4] -0.025 | pinometostat 0.016 | [5] 0.049 | [6] 0.073

SNX17 (UniProt Q15036)
inactive: IRAK-1-4 Inhibitor I -0.034 | ibrutinib -0.042 | [1] -0.116 | ralimetinib 0.183 | [2] -0.055 | [3] -0.072 | [4] 0.043 | pinometostat -0.116 | [5] 0.218 | [6] 0.052

SNX8 (UniProt Q9Y5X2)
inactive: IRAK-1-4 Inhibitor I 0.067 | ibrutinib 0.017 | [1] -0.083 | ralimetinib -0.04 | [2] -0.046 | [3] 0.028 | [4] 0.042 | pinometostat -0.007 | [5] 0.002 | [6] -0.038

SORD (UniProt Q00796)
inactive: IRAK-1-4 Inhibitor I 0.011 | ibrutinib 0.005 | [1] 0.03 | ralimetinib -0.037 | [2] -0.019 | [3] 0.106 | [4] -0.02 | pinometostat -0.072 | [5] -0.001 | [6] 0.024

Quoted from the results shown (two entries):
SNX14 (UniProt Q9Y5W7)
inactive: IRAK-1-4 Inhibitor I 0.077 | ibrutinib -0.099 | [1] -0.156 | ralimetinib -0.049 | [2] -0.059 | [3] -0.042 | [4] -0.025 | pinometostat 0.016 | [5] 0.049 | [6] 0.073

SNX17 (UniProt Q15036)
inactive: IRAK-1-4 Inhibitor I -0.034 | ibrutinib -0.042 | [1] -0.116 | ralimetinib 0.183 | [2] -0.055 | [3] -0.072 | [4] 0.043 | pinometostat -0.116 | [5] 0.218 | [6] 0.052
